These are yes or no findings as the source states them, for the method shown. Binding can be weak; no strength is given. Where a sequence is shown, tags or fusion partners need not be part of it.
What was measured:
[1] = target: T1, GST-tagged CheY, phosphorylated with acetyl-phosphate (C. jejuni) (UniProt P0C635); test: pull-down
T1 sequence (chain, phosphorylated with acetyl phosphate (residue not printed)): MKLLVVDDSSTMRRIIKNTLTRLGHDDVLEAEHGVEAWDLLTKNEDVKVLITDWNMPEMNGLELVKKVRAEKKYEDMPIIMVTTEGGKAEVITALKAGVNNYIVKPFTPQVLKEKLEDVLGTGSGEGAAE

[2] = target: T2, CheV fused to the T25 adenylate cyclase subunit (C. jejuni) (UniProt Q0PBM1); test: two-hybrid
T2 sequence: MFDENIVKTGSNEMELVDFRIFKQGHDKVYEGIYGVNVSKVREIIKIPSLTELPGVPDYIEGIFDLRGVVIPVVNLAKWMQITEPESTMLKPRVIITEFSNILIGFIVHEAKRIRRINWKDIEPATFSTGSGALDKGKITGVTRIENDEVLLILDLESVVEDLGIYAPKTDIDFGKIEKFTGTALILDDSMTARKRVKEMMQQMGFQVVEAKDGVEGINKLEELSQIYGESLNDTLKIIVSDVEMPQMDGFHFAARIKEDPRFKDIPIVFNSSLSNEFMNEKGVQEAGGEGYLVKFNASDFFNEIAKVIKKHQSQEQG

[3] = target: T3, CheY fused to the T25 adenylate cyclase subunit (C. jejuni) (UniProt P0C635); test: two-hybrid
T3 sequence: T1 sequence (chain, phosphorylated with acetyl phosphate (residue not printed))

Row | Substance | binding [1] | binding [2] | binding [3]
1 | His-tagged Cj0700 (from UniProt Q0PAH9) (enzyme) | binds | – | –
2 | Cj0700 fused to the T18 adenylate cyclase subunit (from UniProt Q0PAH9) (enzyme) | – | binds | binds
